{
  "source": "paper PMC8514460",
  "key": {"FLAG-ERLIN1": {"molecular_target": "T1, FLAG-ERLIN1 (UniProt O75477)", "T1 sequence": "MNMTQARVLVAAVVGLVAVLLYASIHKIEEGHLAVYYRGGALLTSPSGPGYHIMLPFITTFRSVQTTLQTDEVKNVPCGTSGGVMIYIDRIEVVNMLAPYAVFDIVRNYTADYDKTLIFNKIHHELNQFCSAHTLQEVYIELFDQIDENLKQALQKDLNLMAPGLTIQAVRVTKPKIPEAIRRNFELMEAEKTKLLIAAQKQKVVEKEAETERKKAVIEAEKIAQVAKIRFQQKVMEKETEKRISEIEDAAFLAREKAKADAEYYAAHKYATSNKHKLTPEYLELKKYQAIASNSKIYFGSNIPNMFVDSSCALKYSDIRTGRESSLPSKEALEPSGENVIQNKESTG", "assay": "co-IP; FLAG-tagged bait and tagged prey co-expressed in HEK 293T cells; lysis in 1% deoxy Big CHAP or 1% Triton X-100 at 4 °C; M2 FLAG beads 2 h at 4 °C; eluted with 3xFLAG peptide; immunoblot (in Fig. 6e from Beclin1 siRNA cells, eluate then run on a sucrose gradient)"}, "FLAG-PGRMC2": {"molecular_target": "T2, FLAG-PGRMC2 (UniProt O15173)", "T2 sequence": "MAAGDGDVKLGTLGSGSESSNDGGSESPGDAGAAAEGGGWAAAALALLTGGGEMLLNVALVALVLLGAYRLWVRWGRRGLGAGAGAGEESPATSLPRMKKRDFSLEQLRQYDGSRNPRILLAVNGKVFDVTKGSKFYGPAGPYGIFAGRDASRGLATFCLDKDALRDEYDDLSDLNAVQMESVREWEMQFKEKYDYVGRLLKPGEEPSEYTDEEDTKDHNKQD", "assay": "co-IP; FLAG-tagged bait and tagged prey co-expressed in HEK 293T cells; lysis in 1% deoxy Big CHAP or 1% Triton X-100 at 4 °C; M2 FLAG beads 2 h at 4 °C; eluted with 3xFLAG peptide; immunoblot (in Fig. 6e from Beclin1 siRNA cells, eluate then run on a sucrose gradient)"}},
  "note": "These are yes or no findings as the source states them, for the method shown. Binding seen in cells or lysates may run through a third protein. Sequences can lack the tags named with a protein.",
  "data": [
    {"substance": "L105(A16)P-Myc MIDY mutant proinsulin (human)", "values": [
      {"measurement": "binding", "setting": "FLAG-ERLIN1", "result": "no binding"}
    ]},
    {"substance": "C28F-POMC-Myc", "values": [
      {"measurement": "binding", "setting": "FLAG-PGRMC2", "result": "no binding"},
      {"measurement": "binding", "setting": "FLAG-ERLIN1", "result": "no binding"}
    ]}
  ]
}
